{"source": "PubChem BioAssay AID493246 (Drosophila RNAi Screening Center, 2011)", "test": "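Genome-wide search for dsRNAs that reduce cell number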 (primary screen)", "system": "Drosophila Kc and S2R+ cells", "knock-down reagent": "long dsRNA against Drosophila genes", "measured": "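Cell number per well after knock-down, printed as raw plate values; calls were based on per-plate z-scores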", "scale": "Kc cell number and S2R+ cell number: higher = more cells remaining", "active means": "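Counted as a hit if cell number falls by a z-score of at least 3 within its plate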", "note": "In all, the deposit lists about 21,000 reagents; this is a random part of those with a known target gene and a result. In the full data, 429 (2%) are marked active. 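Values are raw and not normalised between plates; calls rest on per-plate z-scores that were not deposited.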 Names joined by + are all predicted targets of the reagent. Not stated in the record: the amount of reagent, the time to read-out."}
{"target gene":"l(2)27Cb (retired record) (GeneID 48760)","Kc cell number, rep 1":1.48e6,"Kc cell number, rep 2":1.35e6,"S2R+ cell number, rep 1":8.86e5,"S2R+ cell number, rep 2":1.05e6,"call":"inactive"}
{"target gene":"vilya (GeneID 31264)","Kc cell number, rep 1":1.41e6,"Kc cell number, rep 2":1.40e6,"S2R+ cell number, rep 1":9.64e5,"S2R+ cell number, rep 2":1.07e6,"call":"inactive"}
{"target gene":"CG18081 (GeneID 39725)","Kc cell number, rep 1":1.41e6,"Kc cell number, rep 2":1.41e6,"S2R+ cell number, rep 1":1.19e6,"S2R+ cell number, rep 2":1.32e6,"call":"inactive"}
{"target gene":"Shark (GeneID 44353)","Kc cell number, rep 1":1.46e6,"Kc cell number, rep 2":1.47e6,"S2R+ cell number, rep 1":1.16e6,"S2R+ cell number, rep 2":1.25e6,"call":"inactive"}
{"target gene":"Elp4 (GeneID 33775)","Kc cell number, rep 1":1.25e6,"Kc cell number, rep 2":1.14e6,"S2R+ cell number, rep 1":1.03e6,"S2R+ cell number, rep 2":1.18e6,"call":"inactive"}
{"target gene":"SerT (GeneID 37895)","Kc cell number, rep 1":1.58e6,"Kc cell number, rep 2":1.58e6,"S2R+ cell number, rep 1":1.15e6,"S2R+ cell number, rep 2":1.25e6,"call":"inactive"}
{"target gene":"CG4161 (GeneID 34907)","Kc cell number, rep 1":1.45e6,"Kc cell number, rep 2":1.56e6,"S2R+ cell number, rep 1":1.16e6,"S2R+ cell number, rep 2":1.31e6,"call":"inactive"}
{"target gene":"Sox14 (GeneID 37822)","Kc cell number, rep 1":1.67e6,"Kc cell number, rep 2":1.77e6,"S2R+ cell number, rep 1":1.45e6,"S2R+ cell number, rep 2":1.61e6,"call":"inactive"}
{"target gene":"CG13933 (GeneID 38227)","Kc cell number, rep 1":1.34e6,"Kc cell number, rep 2":1.36e6,"S2R+ cell number, rep 1":1.13e6,"S2R+ cell number, rep 2":1.25e6,"call":"inactive"}
{"target gene":"CG10973 (GeneID 39447)","Kc cell number, rep 1":1.43e6,"Kc cell number, rep 2":1.47e6,"S2R+ cell number, rep 1":1.35e6,"S2R+ cell number, rep 2":1.29e6,"call":"inactive"}
{"target gene":"Vps25 (GeneID 35847)","Kc cell number, rep 1":1.97e6,"Kc cell number, rep 2":1.98e6,"S2R+ cell number, rep 1":1.48e6,"S2R+ cell number, rep 2":1.67e6,"call":"inactive"}
{"target gene":"CG6108 (retired record) (GeneID 34733)","Kc cell number, rep 1":1.60e6,"Kc cell number, rep 2":1.72e6,"S2R+ cell number, rep 1":1.23e6,"S2R+ cell number, rep 2":1.39e6,"call":"inactive"}
{"target gene":"Xport-A + Xport-B","Kc cell number, rep 1":1.52e6,"Kc cell number, rep 2":1.62e6,"S2R+ cell number, rep 1":1.18e6,"S2R+ cell number, rep 2":1.21e6,"call":"inactive"}
{"target gene":"p47 (GeneID 35674)","Kc cell number, rep 1":1.26e6,"Kc cell number, rep 2":1.40e6,"S2R+ cell number, rep 1":1.12e6,"S2R+ cell number, rep 2":1.16e6,"call":"inactive"}
{"target gene":"Prosbeta5 (GeneID 45269)","Kc cell number, rep 1":1.09e6,"Kc cell number, rep 2":1.16e6,"S2R+ cell number, rep 1":7.01e5,"S2R+ cell number, rep 2":8.05e5,"call":"active"}
{"target gene":"Vha68-2 (GeneID 45012)","Kc cell number, rep 1":1.53e6,"Kc cell number, rep 2":1.54e6,"S2R+ cell number, rep 1":1.25e6,"S2R+ cell number, rep 2":1.40e6,"call":"inactive"}
{"target gene":"CG14237 (GeneID 43194)","Kc cell number, rep 1":1.61e6,"Kc cell number, rep 2":1.66e6,"S2R+ cell number, rep 1":9.71e5,"S2R+ cell number, rep 2":1.16e6,"call":"inactive"}
{"target gene":"fd102C (GeneID 43843)","Kc cell number, rep 1":1.65e6,"Kc cell number, rep 2":1.63e6,"S2R+ cell number, rep 1":1.10e6,"S2R+ cell number, rep 2":1.25e6,"call":"inactive"}
{"target gene":"Tpi (GeneID 43582)","Kc cell number, rep 1":5.09e5,"S2R+ cell number, rep 1":8.60e5,"call":"inactive"}
{"target gene":"Vps11 (GeneID 317987)","Kc cell number, rep 1":1.71e6,"Kc cell number, rep 2":1.88e6,"S2R+ cell number, rep 1":1.11e6,"S2R+ cell number, rep 2":1.32e6,"call":"inactive"}
{"target gene":"Snx16 (GeneID 37015)","Kc cell number, rep 1":1.63e6,"Kc cell number, rep 2":1.62e6,"S2R+ cell number, rep 1":1.26e6,"S2R+ cell number, rep 2":1.34e6,"call":"inactive"}
